# Data published in the supplement of paper PMC10849652.
# Sequences of proteins named here, by UniProt entry; tags and fusion partners are left off. A change or cut given only in a name is not applied to a line headed by its entry.
# UniProt P45880: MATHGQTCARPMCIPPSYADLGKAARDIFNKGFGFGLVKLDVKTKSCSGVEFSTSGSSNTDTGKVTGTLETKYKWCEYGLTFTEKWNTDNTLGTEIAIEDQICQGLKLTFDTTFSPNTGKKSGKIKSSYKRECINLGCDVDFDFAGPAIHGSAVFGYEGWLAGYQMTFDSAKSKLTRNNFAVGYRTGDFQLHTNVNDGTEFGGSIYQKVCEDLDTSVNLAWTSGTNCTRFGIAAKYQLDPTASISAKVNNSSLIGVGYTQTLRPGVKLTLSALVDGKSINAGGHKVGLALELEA
# UniProt Q96AJ9: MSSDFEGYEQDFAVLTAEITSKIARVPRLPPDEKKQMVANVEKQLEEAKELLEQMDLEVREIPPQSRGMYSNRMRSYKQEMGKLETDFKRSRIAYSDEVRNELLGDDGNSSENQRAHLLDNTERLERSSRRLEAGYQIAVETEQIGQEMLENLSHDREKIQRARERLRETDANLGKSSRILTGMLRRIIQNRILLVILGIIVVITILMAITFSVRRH
# UniProt Q9Y277: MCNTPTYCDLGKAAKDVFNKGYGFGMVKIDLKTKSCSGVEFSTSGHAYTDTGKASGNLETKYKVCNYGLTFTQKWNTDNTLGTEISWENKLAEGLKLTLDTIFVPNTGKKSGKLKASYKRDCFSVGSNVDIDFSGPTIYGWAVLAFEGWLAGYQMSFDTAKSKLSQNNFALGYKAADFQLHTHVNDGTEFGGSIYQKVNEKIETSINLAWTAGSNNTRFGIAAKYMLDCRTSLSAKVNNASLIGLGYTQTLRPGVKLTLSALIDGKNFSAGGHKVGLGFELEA
# UniProt Q9UEU0: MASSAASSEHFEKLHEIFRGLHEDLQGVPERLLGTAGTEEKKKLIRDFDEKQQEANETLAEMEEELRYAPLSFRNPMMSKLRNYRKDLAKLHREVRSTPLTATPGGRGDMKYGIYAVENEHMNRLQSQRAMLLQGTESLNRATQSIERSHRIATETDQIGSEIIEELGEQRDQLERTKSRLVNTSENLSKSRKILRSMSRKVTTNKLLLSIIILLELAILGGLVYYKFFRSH
# UniProt Q96EX3: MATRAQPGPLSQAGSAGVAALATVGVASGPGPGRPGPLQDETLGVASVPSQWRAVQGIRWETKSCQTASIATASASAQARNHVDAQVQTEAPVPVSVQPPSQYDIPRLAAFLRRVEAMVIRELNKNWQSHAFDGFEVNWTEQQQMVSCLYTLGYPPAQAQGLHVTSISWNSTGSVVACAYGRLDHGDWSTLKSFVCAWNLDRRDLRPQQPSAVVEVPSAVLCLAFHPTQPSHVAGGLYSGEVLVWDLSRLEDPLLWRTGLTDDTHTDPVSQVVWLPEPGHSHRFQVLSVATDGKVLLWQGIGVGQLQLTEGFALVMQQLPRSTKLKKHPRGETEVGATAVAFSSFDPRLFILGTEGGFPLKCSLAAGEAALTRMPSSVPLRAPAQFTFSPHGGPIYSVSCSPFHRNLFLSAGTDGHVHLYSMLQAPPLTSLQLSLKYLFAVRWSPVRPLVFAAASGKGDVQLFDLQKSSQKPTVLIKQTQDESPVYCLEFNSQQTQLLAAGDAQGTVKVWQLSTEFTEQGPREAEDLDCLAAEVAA
# UniProt Q99986: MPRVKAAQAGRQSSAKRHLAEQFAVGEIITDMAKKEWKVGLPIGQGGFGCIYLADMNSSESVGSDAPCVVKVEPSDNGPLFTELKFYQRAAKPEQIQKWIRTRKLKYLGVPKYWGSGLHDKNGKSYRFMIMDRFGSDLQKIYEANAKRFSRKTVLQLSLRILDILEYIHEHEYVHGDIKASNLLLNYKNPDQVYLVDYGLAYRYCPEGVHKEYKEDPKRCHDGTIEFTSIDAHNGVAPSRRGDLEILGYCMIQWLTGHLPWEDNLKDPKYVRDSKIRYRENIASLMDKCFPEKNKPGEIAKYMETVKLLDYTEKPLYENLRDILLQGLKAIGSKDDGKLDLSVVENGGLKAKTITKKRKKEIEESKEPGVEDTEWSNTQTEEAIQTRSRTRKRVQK
# UniProt Q15007: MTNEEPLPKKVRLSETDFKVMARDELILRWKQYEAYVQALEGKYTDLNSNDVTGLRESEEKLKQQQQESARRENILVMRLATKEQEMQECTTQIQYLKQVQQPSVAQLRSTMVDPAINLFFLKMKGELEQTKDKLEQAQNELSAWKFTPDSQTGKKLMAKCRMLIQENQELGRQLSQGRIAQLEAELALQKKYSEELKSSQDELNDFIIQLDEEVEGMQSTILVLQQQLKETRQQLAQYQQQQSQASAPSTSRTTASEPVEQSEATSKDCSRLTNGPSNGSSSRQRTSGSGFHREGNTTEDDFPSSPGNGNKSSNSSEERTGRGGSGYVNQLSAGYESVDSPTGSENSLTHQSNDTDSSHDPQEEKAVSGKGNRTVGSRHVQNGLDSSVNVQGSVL
# UniProt O43516: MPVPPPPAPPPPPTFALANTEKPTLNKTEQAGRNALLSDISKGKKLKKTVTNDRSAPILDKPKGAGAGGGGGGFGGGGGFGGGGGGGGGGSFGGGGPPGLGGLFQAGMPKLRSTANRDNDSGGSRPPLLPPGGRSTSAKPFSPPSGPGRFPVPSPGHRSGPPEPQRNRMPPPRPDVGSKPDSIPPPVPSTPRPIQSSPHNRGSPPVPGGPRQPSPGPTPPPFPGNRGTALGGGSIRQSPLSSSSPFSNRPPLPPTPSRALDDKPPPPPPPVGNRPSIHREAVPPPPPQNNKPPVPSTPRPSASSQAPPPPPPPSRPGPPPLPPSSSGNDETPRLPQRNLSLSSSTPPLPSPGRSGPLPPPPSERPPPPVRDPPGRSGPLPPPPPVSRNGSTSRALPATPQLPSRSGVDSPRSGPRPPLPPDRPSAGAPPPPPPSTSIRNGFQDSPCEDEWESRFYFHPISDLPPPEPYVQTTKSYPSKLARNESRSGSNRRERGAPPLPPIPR
# UniProt O15240: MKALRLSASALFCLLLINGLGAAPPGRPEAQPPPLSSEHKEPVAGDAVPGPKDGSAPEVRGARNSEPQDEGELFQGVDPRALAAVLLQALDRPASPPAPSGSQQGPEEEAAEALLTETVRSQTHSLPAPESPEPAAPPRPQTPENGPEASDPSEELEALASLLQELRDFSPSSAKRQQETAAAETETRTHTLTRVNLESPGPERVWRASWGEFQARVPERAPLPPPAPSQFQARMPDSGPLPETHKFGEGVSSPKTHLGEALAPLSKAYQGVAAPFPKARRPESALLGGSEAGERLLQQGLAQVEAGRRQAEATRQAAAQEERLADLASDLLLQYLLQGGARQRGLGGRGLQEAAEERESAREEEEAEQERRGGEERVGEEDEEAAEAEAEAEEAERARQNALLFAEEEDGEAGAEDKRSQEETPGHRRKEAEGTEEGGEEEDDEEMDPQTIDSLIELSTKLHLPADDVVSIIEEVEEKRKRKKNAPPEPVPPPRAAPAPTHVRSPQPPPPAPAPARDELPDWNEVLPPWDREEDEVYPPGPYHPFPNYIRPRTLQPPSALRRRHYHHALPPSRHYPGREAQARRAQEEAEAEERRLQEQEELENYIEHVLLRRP
# UniProt P09327: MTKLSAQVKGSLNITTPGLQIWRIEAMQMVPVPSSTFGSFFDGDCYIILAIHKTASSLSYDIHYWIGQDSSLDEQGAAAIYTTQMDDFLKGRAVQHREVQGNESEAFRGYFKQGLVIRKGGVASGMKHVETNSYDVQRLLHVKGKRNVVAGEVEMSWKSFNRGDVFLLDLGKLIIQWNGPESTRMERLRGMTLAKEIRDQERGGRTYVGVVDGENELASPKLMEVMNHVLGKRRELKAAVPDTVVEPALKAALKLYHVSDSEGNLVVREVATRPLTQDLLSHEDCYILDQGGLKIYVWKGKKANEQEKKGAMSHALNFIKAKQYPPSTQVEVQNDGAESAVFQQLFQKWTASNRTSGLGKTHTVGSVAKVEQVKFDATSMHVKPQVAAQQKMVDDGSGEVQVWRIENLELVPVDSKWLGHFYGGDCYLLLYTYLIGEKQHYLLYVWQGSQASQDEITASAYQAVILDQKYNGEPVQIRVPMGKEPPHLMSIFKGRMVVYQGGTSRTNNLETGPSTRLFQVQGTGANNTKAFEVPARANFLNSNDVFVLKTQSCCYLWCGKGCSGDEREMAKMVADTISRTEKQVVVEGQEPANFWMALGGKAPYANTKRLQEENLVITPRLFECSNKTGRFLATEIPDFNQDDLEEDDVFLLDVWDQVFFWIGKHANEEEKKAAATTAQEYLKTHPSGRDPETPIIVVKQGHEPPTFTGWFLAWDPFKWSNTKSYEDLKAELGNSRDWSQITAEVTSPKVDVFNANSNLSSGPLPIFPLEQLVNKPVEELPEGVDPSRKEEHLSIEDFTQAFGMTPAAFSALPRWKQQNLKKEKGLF
# UniProt Q9H867: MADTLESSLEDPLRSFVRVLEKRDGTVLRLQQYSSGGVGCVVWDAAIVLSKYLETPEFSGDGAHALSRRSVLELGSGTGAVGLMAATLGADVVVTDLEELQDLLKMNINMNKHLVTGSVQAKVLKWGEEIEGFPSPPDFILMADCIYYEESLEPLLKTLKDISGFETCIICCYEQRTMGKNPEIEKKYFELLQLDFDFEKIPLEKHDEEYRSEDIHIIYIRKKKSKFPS
# The list shows a part of the results. Residues, ends and D or L forms follow the SMILES beside them. *: point of attachment. Cbz = O=C(OCc1ccccc1)*
# Columns and labels:
# Assay in all cases: log2 fold change, soluble protein after heating vs DMSO (PISA); higher = thermal stabilisation; K562 cells, 10 uM, 30 min; active = over 0.2 and 3.5 SD of the protein, either way, in both replicates (recomputed)
# erlotinib = compound: C#Cc1cccc(Nc2ncnc3cc(OCCOC)c(OCCOC)cc23)c1 [erlotinib]
# How it was run: (§1)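 K562 cells (2×10^6 cells/mL) were treated with 10 μM compound for 30 min, and aliquots were heated for 3 min over 48°C-58°C. Pooled aliquots were extracted in PBS with 0.5% NP-40 at 4°C, and the supernatant after 21,000xg for 90 min was measured by TMTpro 16plex LC-MS/MS with channel sums equalised. Reported thermal stability, relative to control samples and from duplicates, is a log2 fold change.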
# [1] = compound: C/C(=N\NC(=O)C1=CC(=CC=C1)S(=O)(=O)N2CCOCC2)/C3=C(C=CC(=C3)Cl)O
# How it was run: as §1
# [2] = compound: C1=CC(=C(C=C1Cl)C2=NC3=NC=CN=C3C(=N2)NC4=CC=NC=C4)F
# How it was run: as §1
# [3] = compound: C1=CC(=CC=C1C2=NC3=C(N2)C=C(C=C3)C(=O)N)OC4=CC=C(C=C4)Cl
# How it was run: as §1
# [4] = compound: C1=CC2=C(C=CC(=C2)/C=C\3/C(=O)NC(=NCC4=CC=CS4)S3)N=C1
# How it was run: as §1
# [5] = compound: C1=CC2=NC=CN=C2C=C1/C=C/3\C(=O)NC(=O)S3
# How it was run: as §1
# [6] = compound: C1=CC=C(C=C1)C2=NC(=C(N2)C3=CC=NC=C3)C4=CC(=C(C=C4)Cl)O
# How it was run: as §1
# [7] = compound: C1=CC=C2C(=C1)C3=NNC4=CC=CC(=C43)C2=O
# How it was run: as §1
# [8] = compound: C1CCN(C1)C(=O)NC2=CC=CC(=C2)NC3=NC=C(C(=N3)NCCC4=CN=CN4)Br
# How it was run: as §1
# [9] = compound: C1CN(CCC1(CC2=CC=C(C=C2)Cl)N)C3=NC=NC4=C3C=CN4
# How it was run: as §1
# IRAK-1-4 Inhibitor I = compound: C1COCCN1CCN2C3=CC=CC=C3N=C2NC(=O)C4=CC(=CC=C4)[N+](=O)[O-] [IRAK-1-4 Inhibitor I]
# How it was run: as §1
# [10] = compound: CC(=O)c1cnc2ccc(-c3cc(Cl)c(O)c(Cl)c3)nc2c1N[C@H]1CC[C@H](CN(C)C)CC1
# How it was run: as §1
# ralimetinib = compound: CC(C)(C)Cn1c(N)nc2ccc(-c3[nH]c(C(C)(C)C)nc3-c3ccc(F)cc3)nc21 [ralimetinib]
# How it was run: as §1
# [11] = compound: CC(C)(O)CC(=O)NCCn1ccc2ncnc(Nc3ccc(Oc4cccc(C(F)(F)F)c4)c(Cl)c3)c21
# How it was run: as §1
# [12] = compound: CC(C)C1=C2N=C(C=C(N2N=C1)NCC3=CC=CC=C3)NCCCCCCN
# How it was run: as §1
# [13] = compound: CC(C)C[C@@H](C=O)NC(=O)[C@H](CC(C)C)NC(=O)[C@H](CC(C)C)NC(=O)OCc1ccccc1
# How it was run: as §1
# pinometostat = compound: CC(C)N(C[C@H]1O[C@@H](n2cnc3c(N)ncnc32)[C@H](O)[C@@H]1O)[C@H]1C[C@@H](CCc2nc3cc(C(C)(C)C)ccc3[nH]2)C1 [pinometostat]
# How it was run: as §1
# [14] = compound: CC1=C(C(CC(=O)N1)C2=CC=C(C=C2)C(F)(F)F)C(=O)NC3=C(C=C4C(=C3)C=NN4)F
# How it was run: as §1
# [15] = compound: CC1=C(C2=C(C=C1)C(=O)C3=CC=CC=C3N2CCCN)C
# How it was run: as §1
# ibrutinib = compound: C=CC(=O)N1CCC[C@@H](n2nc(-c3ccc(Oc4ccccc4)cc3)c3c(N)ncnc32)C1 [ibrutinib]
# How it was run: as §1
Target,log2 fold change (erlotinib),log2 fold change [1],log2 fold change [2],log2 fold change [3],log2 fold change [4],log2 fold change [5],log2 fold change [6],log2 fold change [7],log2 fold change [8],log2 fold change [9],log2 fold change (IRAK-1-4 Inhibitor I),log2 fold change [10],log2 fold change (ralimetinib),log2 fold change [11],log2 fold change [12],log2 fold change [13],log2 fold change (pinometostat),log2 fold change [14],log2 fold change [15],log2 fold change (ibrutinib)
VDAC2 (UniProt P45880),inactive: -0.03,inactive: -0.004,inactive: 0.034,inactive: 0.006,inactive: 0.017,inactive: -0.013,inactive: -0.019,inactive: -0.016,inactive: 0.018,inactive: 0.065,inactive: 0.037,inactive: 0.004,inactive: -0.03,inactive: 0.014,inactive: 0.051,inactive: -0.023,inactive: -0.017,inactive: 0.006,inactive: -0.018,
VTI1A (UniProt Q96AJ9),inactive: -0.07,inactive: 0.026,inactive: -0.037,inactive: -0.014,inactive: 0.015,inactive: 0.087,inactive: -0.055,inactive: -0.002,inactive: 0.019,inactive: 0.005,inactive: 0.095,inactive: -0.009,inactive: -0.111,inactive: 0.019,inactive: 0.005,inactive: 0.028,inactive: -0.016,,inactive: -0.01,inactive: 0.012
VDAC3 (UniProt Q9Y277),inactive: -0.006,inactive: 0.014,inactive: 0.043,inactive: -0.003,inactive: 0.042,inactive: 0.033,inactive: -0.036,inactive: 0.01,inactive: 0.019,inactive: 0.062,inactive: 0.037,inactive: -0.021,inactive: -0.029,inactive: 0.024,inactive: 0.024,inactive: -0.003,inactive: 0,inactive: 0.031,inactive: 0.004,
VTI1B (UniProt Q9UEU0),inactive: 0.011,inactive: -0.008,inactive: -0.023,inactive: -0.02,inactive: 0,inactive: 0.03,inactive: -0.055,inactive: -0.036,inactive: 0.022,inactive: 0.046,inactive: -0.074,inactive: -0.033,inactive: -0.081,inactive: 0.08,active: -0.261,inactive: 0.002,inactive: -0.057,,inactive: 0.012,inactive: 0.027
WDR34 (UniProt Q96EX3),inactive: 0.019,inactive: 0.004,inactive: -0.023,inactive: -0.041,inactive: 0.062,inactive: -0.002,inactive: 0.063,inactive: -0.037,,,inactive: -0.007,inactive: 0.021,inactive: 0.111,inactive: -0.005,inactive: -0.048,inactive: -0.074,inactive: 0.025,inactive: 0.037,,inactive: -0.033
VRK1 (UniProt Q99986),inactive: 0.087,inactive: -0.055,inactive: 0.119,inactive: -0.016,inactive: 0.038,inactive: -0.024,inactive: -0.039,inactive: 0.078,inactive: -0.044,inactive: -0.045,inactive: -0.041,inactive: 0.338,inactive: -0.033,inactive: -0.32,inactive: -0.013,inactive: 0.055,inactive: -0.008,,active: 0.433,inactive: 0.032
WTAP (UniProt Q15007),inactive: -0.156,inactive: 0.134,,inactive: 0.035,inactive: -0.232,,,inactive: -0.111,,,,inactive: -0.121,,,inactive: 0.089,,,,,
WIPF1 isoform 3 (UniProt O43516),inactive: -0.101,inactive: 0.061,,inactive: 0.044,inactive: 0.06,inactive: 0.027,inactive: -0.02,inactive: -0.074,inactive: -0.317,inactive: 0.348,inactive: 0.065,inactive: 0.047,inactive: -0.069,,inactive: 0.077,inactive: 0.082,inactive: 0.039,inactive: 0.107,inactive: -0.199,inactive: 0.049
VGF (UniProt O15240),inactive: -0.011,,,inactive: 0.116,,inactive: -0.019,,,,,,,,,inactive: -0.024,,,,,inactive: 0.096
VIL1 (UniProt P09327),,,inactive: -0.072,,,inactive: -0.057,,,,,,,,inactive: 0.018,,,,,,inactive: 0.062
VCPKMT (UniProt Q9H867),,inactive: 0.151,,,inactive: 0.202,,,inactive: 0.199,inactive: -0.066,inactive: 0.154,,inactive: -0.209,,,,,,,inactive: 0.071,
WARS1 (UniProt G3V5U1),,,inactive: -0.233,,,inactive: 0.187,,,,,inactive: 0.01,,,inactive: 0.156,,,inactive: 0.031,,,inactive: -0.158

# Part of the list above, with bars between the fields:
Target | log2 fold change (erlotinib) | log2 fold change [1] | log2 fold change [2] | log2 fold change [3] | log2 fold change [4] | log2 fold change [5] | log2 fold change [6] | log2 fold change [7] | log2 fold change [8] | log2 fold change [9] | log2 fold change (IRAK-1-4 Inhibitor I) | log2 fold change [10] | log2 fold change (ralimetinib) | log2 fold change [11] | log2 fold change [12] | log2 fold change [13] | log2 fold change (pinometostat) | log2 fold change [14] | log2 fold change [15] | log2 fold change (ibrutinib)
VGF (UniProt O15240) | inactive: -0.011 |  |  | inactive: 0.116 |  | inactive: -0.019 |  |  |  |  |  |  |  |  | inactive: -0.024 |  |  |  |  | inactive: 0.096
VIL1 (UniProt P09327) |  |  | inactive: -0.072 |  |  | inactive: -0.057 |  |  |  |  |  |  |  | inactive: 0.018 |  |  |  |  |  | inactive: 0.062
